Results taken from the supplement of paper PMC10849652.
Some of the results follow.

Sequences of proteins named here, by UniProt entry; tags and fusion partners are left off. A change or cut given only in a name is not applied to a line headed by its entry.
UniProt P98179: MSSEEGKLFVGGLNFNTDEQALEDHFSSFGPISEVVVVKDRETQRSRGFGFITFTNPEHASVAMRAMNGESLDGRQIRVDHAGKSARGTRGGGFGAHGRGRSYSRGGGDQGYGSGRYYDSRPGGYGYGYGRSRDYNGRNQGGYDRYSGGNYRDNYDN
UniProt P61225: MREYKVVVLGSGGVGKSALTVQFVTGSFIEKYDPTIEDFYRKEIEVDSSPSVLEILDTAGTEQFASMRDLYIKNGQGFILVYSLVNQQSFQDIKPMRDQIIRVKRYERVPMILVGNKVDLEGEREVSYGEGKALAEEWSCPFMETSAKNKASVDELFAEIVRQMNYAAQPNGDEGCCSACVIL
UniProt Q96D70: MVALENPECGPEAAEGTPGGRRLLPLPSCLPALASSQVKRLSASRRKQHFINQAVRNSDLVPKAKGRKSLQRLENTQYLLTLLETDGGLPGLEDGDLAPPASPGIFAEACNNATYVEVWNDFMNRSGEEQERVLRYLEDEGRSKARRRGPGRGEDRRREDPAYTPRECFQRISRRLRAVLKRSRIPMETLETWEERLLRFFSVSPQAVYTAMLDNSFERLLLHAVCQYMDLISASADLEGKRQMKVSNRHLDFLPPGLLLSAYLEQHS
UniProt P46060: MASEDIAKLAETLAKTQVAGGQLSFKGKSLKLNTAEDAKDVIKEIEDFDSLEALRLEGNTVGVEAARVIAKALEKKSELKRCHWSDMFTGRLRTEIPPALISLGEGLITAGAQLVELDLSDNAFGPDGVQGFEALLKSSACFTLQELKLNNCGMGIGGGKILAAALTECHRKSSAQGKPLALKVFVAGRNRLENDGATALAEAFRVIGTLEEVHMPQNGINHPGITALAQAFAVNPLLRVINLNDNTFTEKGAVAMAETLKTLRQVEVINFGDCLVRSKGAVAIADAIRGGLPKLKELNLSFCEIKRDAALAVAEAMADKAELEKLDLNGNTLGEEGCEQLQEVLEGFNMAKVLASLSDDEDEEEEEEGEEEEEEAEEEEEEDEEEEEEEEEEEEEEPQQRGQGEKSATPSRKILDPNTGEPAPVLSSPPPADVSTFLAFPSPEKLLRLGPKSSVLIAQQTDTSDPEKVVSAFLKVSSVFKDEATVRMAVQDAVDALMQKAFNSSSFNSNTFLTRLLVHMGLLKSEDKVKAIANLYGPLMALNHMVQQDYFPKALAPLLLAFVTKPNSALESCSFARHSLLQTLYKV
UniProt Q16576, whole entry, looked up: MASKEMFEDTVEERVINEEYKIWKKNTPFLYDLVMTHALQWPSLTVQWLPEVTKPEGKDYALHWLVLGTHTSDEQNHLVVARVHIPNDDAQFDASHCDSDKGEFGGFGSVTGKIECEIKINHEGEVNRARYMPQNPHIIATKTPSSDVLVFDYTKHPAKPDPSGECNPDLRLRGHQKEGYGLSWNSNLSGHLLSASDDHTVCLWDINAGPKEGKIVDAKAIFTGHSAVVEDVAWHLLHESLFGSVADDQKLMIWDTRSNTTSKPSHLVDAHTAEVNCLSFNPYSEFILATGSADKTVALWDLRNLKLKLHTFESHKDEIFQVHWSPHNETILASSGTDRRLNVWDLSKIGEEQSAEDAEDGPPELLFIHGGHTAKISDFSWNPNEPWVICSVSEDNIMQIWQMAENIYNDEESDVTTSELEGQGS
UniProt Q7Z6M1: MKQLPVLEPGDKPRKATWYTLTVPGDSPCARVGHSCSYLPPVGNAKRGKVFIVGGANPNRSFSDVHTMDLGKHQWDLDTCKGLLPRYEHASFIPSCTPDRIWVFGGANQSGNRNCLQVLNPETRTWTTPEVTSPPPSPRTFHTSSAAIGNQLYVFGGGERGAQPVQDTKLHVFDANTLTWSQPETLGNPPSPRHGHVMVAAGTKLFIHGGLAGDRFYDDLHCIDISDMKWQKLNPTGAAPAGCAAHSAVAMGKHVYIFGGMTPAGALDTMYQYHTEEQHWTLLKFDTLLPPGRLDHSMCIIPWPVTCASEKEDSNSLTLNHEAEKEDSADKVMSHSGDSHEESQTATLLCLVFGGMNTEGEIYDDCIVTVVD
UniProt Q96S59, whole entry, looked up: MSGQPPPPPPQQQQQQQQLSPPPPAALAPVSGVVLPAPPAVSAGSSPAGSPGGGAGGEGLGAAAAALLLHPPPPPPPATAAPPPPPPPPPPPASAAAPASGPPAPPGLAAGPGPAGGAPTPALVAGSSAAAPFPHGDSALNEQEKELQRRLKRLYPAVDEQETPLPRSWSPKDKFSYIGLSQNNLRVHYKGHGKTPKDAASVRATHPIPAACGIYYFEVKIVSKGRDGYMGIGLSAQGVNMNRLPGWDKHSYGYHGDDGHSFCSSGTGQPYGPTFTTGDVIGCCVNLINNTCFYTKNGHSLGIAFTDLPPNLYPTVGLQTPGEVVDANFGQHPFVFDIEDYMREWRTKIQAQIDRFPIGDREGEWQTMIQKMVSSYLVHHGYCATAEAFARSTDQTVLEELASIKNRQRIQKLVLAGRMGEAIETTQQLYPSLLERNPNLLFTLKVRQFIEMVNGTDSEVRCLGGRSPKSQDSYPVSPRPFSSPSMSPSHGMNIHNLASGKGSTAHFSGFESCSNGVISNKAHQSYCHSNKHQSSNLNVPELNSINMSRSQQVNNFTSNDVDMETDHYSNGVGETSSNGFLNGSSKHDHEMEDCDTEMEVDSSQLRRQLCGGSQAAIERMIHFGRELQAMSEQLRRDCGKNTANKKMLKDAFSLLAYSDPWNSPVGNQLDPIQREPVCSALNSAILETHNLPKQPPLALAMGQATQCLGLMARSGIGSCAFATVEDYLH
UniProt Q9ULC3: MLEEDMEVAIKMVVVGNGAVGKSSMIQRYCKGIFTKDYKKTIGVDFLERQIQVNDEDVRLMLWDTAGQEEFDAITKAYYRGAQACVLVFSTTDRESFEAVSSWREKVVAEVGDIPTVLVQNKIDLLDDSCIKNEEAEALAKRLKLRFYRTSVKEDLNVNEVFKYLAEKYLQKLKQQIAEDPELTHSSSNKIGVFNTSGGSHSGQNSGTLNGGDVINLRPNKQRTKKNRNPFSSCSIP
UniProt Q9Y3L5: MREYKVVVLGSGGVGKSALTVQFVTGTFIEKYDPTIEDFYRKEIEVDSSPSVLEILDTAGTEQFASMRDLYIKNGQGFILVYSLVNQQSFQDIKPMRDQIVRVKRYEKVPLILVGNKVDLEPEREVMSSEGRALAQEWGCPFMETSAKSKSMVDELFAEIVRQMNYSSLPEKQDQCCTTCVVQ
UniProt P11233: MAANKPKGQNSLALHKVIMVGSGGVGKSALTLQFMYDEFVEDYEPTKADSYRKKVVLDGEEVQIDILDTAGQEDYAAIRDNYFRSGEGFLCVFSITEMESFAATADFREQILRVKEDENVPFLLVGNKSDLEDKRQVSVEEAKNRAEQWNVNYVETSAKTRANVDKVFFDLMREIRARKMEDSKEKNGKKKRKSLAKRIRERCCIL
UniProt O14966: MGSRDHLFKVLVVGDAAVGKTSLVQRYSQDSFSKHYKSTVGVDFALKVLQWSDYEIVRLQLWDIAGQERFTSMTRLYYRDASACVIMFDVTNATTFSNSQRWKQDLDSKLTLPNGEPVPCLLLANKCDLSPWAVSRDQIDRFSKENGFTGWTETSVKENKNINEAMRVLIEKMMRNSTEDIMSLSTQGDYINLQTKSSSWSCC
UniProt P78406: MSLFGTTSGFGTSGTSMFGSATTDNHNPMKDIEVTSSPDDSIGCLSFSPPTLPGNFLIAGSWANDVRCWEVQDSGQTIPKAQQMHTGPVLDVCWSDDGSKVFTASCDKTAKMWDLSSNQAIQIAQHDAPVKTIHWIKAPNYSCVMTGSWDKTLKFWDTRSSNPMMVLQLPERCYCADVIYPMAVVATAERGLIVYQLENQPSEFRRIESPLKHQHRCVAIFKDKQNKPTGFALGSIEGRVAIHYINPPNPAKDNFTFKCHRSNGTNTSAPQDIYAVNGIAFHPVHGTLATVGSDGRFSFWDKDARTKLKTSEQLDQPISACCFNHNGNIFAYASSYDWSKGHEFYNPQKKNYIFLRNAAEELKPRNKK

Tests used:
Assay in all cases: log2 fold change, soluble protein after heating vs DMSO (PISA); higher = thermal stabilisation; K562 cells, 10 uM, 30 min; active = over 0.2 and 3.5 SD of the protein, either way, in both replicates (recomputed)
[1] = compound: CC[C@@H]1C(=O)N(C)c2cnc(Nc3ccc(C(=O)NC4CCN(C)CC4)cc3OC)nc2N1C1CCCC1
Summary of the method: (§1)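 Soluble protein was quantified by TMTpro 16plex LC-MS/MS after channel sums were equalised. It was obtained as the supernatant after 21,000xg for 90 min from pooled aliquots of K562 cells (2×10^6 cells/mL, 10 μM compound, 30 min) heated for 3 min across 48°C-58°C and extracted in PBS with 0.5% NP-40 at 4°C. Thermal stability values are relative to control samples and come from duplicates. They are given as log2 fold changes.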

volasertib = compound: CC[C@@H]1C(=O)N(C)c2cnc(Nc3ccc(C(=O)N[C@H]4CC[C@H](N5CCN(CC6CC6)CC5)CC4)cc3OC)nc2N1C(C)C [volasertib]
Summary of the method: as §1

[2] = compound: CC[C@H](C)N1C=C(C2=C(C=C(C=C21)C3=CN=C(C=C3)N4CCNCC4)C(=O)NCC5=C(C=C(NC5=O)C)C)C
Summary of the method: as §1

epoxomicin = compound: CC[C@H](C)[C@@H](C(=O)N[C@@H]([C@@H](C)O)C(=O)N[C@@H](CC(C)C)C(=O)[C@]1(CO1)C)NC(=O)[C@H]([C@@H](C)CC)N(C)C(=O)C [epoxomicin]
Summary of the method: as §1

[3] = compound: CCn1c(C(=O)N(C2CC2)C2CC2)cc2c3c(ncn3C)c(Nc3cc(C)n(C)n3)nc21
Summary of the method: as §1

[4] = compound: CCn1cc(-c2ccnc3[nH]c(-c4cccc(CN(C)C)c4)cc23)c(-c2ccc(NC(=O)N(C)C)cc2)n1
Summary of the method: as §1

[5] = compound: CN(C)CC(=O)Nc1ccc2[nH]c(=O)c3ccccc3c2c1
Summary of the method: as §1

rosiglitazone = compound: CN(CCOC1=CC=C(C=C1)C[C@H]2C(=O)NC(=O)S2)C3=CC=CC=N3 (racemic) [rosiglitazone]
Summary of the method: as §1

[6] = compound: CN1C2=C(C3=C1C(=O)N(N=C3)CC4=CC(=CC=C4)N)SC(=C2)S(=O)C
Summary of the method: as §1

[7] = compound: CN1CCC(CNc2ccc3ncc(-c4cccc(OC(F)(F)F)c4)n3n2)CC1
Summary of the method: as §1

Measured: log2 fold change

RBM3 (UniProt P98179)
inactive: [1] 0.116 | volasertib 0.173 | [2] -0.049 | epoxomicin -0.169 | [3] 0.032 | [4] 0.171 | [5] -0.107 | rosiglitazone -0.162 | [6] 0.178 | [7] 0.244

RAP2B (UniProt P61225)
inactive: [1] 0.087 | volasertib 0.087 | [2] -0.039 | epoxomicin 0.001 | [3] 0.072 | [4] 0.021 | [5] 0.004 | rosiglitazone -0.017 | [6] -0.022 | [7] 0.208

R3HDM4 (UniProt Q96D70)
inactive: [1] -0.106 | volasertib -0.034 | [2] 0.043 | epoxomicin 0.108 | [3] 0.046 | [5] -0.012 | rosiglitazone 0.151 | [6] -0.058

RANGAP1 (UniProt P46060)
inactive: [1] -0.052 | volasertib -0.206 | [2] 0.049 | epoxomicin -0.008 | [3] -0.013 | [4] 0.007 | [5] 0.011 | rosiglitazone 0.033 | [6] 0.02 | [7] -0.039

RAP1B (UniProt F5GZG1)
inactive: [1] 0.102 | volasertib 0.095 | [2] -0.213 | epoxomicin -0.032 | [3] -0.078 | [5] 0.024 | rosiglitazone 0.019 | [6] -0.046

RBBP7 (UniProt Q16576)
inactive: [1] -0.11 | volasertib -0.115 | [2] -0.047 | epoxomicin 0.018 | [3] 0.049 | rosiglitazone 0.046 | [6] -0.148

RABEPK (UniProt Q7Z6M1)
inactive: [1] 0.019 | volasertib 0.043 | [2] -0.045 | epoxomicin 0.017 | [3] -0.006 | [4] -0.001 | [5] 0.025 | rosiglitazone 0.046 | [6] -0.012 | [7] -0.009

RANBP9 (UniProt Q96S59)
inactive: [1] -0.03 | volasertib -0.073 | [2] -0.018 | epoxomicin 0.054 | [3] 0.013 | [4] -0.025 | [5] -0.013 | rosiglitazone -0.046 | [6] -0.012 | [7] 0.011

RAB23 (UniProt Q9ULC3)
inactive: [1] 0.049 | volasertib 0.069 | [2] -0.013 | epoxomicin 0.015 | [3] -0.051 | [4] -0.025 | [5] -0.018 | rosiglitazone 0.008 | [6] -0.068 | [7] 0.103

RAP2C (UniProt Q9Y3L5)
inactive: [1] 0.02 | volasertib 0.05 | [2] 0.042 | epoxomicin 0.172 | [4] 0.097 | [5] 0.052 | [6] -0.105 | [7] 0.173

2 successive records from above, for reference:
RBBP7 (UniProt Q16576)
inactive: [1] -0.11 | volasertib -0.115 | [2] -0.047 | epoxomicin 0.018 | [3] 0.049 | rosiglitazone 0.046 | [6] -0.148

RABEPK (UniProt Q7Z6M1)
inactive: [1] 0.019 | volasertib 0.043 | [2] -0.045 | epoxomicin 0.017 | [3] -0.006 | [4] -0.001 | [5] 0.025 | rosiglitazone 0.046 | [6] -0.012 | [7] -0.009

(list continues)

RBBP7 isoform 2 (UniProt Q16576)
inactive: [1] -0.041 | volasertib -0.076 | [2] -0.019 | epoxomicin 0.007 | [3] 0.017 | [4] -0.009 | [5] -0.01 | rosiglitazone 0.014 | [6] -0.048 | [7] 0.001

RALA (UniProt P11233)
active: [7] 0.434
inactive: [1] 0.084 | volasertib 0.025 | [2] -0.044 | epoxomicin -0.054 | [4] 0.029 | [5] -0.029 | [6] -0.115

RAB29 (UniProt O14966)
inactive: [1] 0.032 | volasertib 0.065 | [2] 0.035 | epoxomicin -0.057 | [3] 0.001 | [4] 0.027 | [5] 0.038 | rosiglitazone 0.03 | [6] -0.087 | [7] -0.018

RAE1 (UniProt P78406)
inactive: [1] 0.046 | volasertib -0.067 | [2] 0.105 | epoxomicin -0.031 | [3] -0.08 | [4] 0.043 | [5] 0.046 | rosiglitazone -0.026 | [6] 0.126 | [7] -0.101
